## Primary screen of a compound library

Sequences of proteins named here, by UniProt entry; tags and fusion partners are left off.
UniProt E9BF75, entry or part of it: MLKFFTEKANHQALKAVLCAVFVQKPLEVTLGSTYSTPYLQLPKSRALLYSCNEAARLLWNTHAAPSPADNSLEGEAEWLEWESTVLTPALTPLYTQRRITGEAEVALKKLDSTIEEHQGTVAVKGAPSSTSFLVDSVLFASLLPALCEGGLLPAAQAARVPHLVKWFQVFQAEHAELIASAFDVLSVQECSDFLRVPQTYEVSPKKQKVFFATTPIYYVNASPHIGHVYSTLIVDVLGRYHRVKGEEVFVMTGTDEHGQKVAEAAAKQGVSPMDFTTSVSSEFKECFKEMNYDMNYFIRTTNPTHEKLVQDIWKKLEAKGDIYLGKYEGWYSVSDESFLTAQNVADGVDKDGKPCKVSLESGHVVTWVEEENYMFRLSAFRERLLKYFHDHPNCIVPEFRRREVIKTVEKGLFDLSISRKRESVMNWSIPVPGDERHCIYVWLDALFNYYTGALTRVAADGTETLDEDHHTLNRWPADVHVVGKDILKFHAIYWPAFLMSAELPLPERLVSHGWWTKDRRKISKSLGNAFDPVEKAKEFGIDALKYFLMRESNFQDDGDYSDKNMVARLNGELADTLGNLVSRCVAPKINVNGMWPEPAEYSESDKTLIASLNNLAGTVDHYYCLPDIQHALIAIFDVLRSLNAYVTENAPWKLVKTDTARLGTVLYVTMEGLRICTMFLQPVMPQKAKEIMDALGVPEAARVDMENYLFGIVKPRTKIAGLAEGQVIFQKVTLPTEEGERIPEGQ

Source: ChEMBL document CHEMBL3988442, “University of Dundee, Small-Polar-MMV Screening Library” (2021).

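Primary screen of methionyl-tRNA synthetase; the read-out is not stated. Target: Methionyl-tRNA synthetase (putative), Leishmania donovani (UniProt E9BF75). The test concentration is not given. Values are per cent inhibition. Of about 68,000 compounds tested this way, about 24 (0.035%) reached 50% or more in at least one test.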

Results are percentages, as filed.
The record does not define 0% and 100%; most values in the screen are far below 50% and negative numbers occur (in some assays of this library far below -100).
The compounds are a random part of those screened.

| SMILES | inhibition |
|---|---|
| `O=C(Cc1cccc2ccccc12)N1CCC(Nc2cccnn2)CC1` | 12.58% |
| `O=C(CN1CCc2onc(-c3ccccc3F)c2C1)NC1CC1` | 6.213% |
| `CC(=O)N1CCC(Cc2cnc(-n3ccnc3)cn2)CC1` | 16.72% |
| `CC(=O)Nc1nc(SCc2ccc3c(c2)OCO3)ns1` | -7.302% |
| `CCc1cnc(N)nc1NC(C)c1ccc(C)c(C)c1` (stereo unspecified) | 19.61% |
| `Cn1nc(-c2ccccc2)cc1[C@H]1CN2CC[C@H]1C[C@@H]2CNS(C)(=O)=O` | 9.023% |
| `Cc1ncsc1C(=O)NC1CCN(CCCC#N)CC1` | 6.627% |
| `O=C(C[C@@H]1COC[C@H]2CN(CC3CC3)C[C@@H]12)NCc1cccnc1` | 8.791% |
| `CNCc1cc(C)n(-c2ccccc2OC)c1C` | 26.36% |
| `Cc1cccc(COCC2c3nnn(C)c3CCN2Cc2ccoc2)n1` (stereo unspecified) | 12.33% |
| `CC(C)c1cc(COCCC(=O)O)no1` | 2.432% |
| `CN1CC(c2n[nH]c(=O)n2-c2cccc(Cl)c2)CC1=O` (stereo unspecified) | 15.41% |
| `CC(C)(C)c1nc(CC(=O)Nc2cnccc2O)cs1` | 9.777% |
| `CCc1noc(C2CCCCN2C(=O)c2ccc3c(c2)OCO3)n1` (stereo unspecified) | 3.266% |
| `c1cnnc(N2CCCC2CNCc2cscn2)c1` (stereo unspecified) | 8.197% |
| `Cc1cnn(CC2CCCN2CC(=O)N(C)Cc2ccc(C)o2)c1` (stereo unspecified) | 11.23% |
| `CC(C)NC(=O)[C@@H]1CN(Cc2nccs2)C[C@H]2OCC[C@H]21` | -5.495% |
| `O=C(CN1CCN(c2ncccn2)[C@@H]2CS(=O)(=O)C[C@@H]21)N1CCCCC1` | 9.926% |
| `O=C(NCCCN1CCOCC1)c1ccn(COc2ccc(Br)cc2)n1` | -44.47% |
| `c1cc(CN2CCCC2c2noc(C3CC3)n2)on1` (stereo unspecified) | 15.67% |
| `Cn1nc(C(=O)N(CC(F)(F)F)c2cccc(Cl)c2)ccc1=O` | 1.742% |
| `CCOc1ccccc1-c1noc(CN2CC(n3cccn3)C2)n1` | 17.36% |
| `CCc1cnc(N)nc1NC(C)c1cnn(C)c1` (stereo unspecified) | 8.403% |
| `O=C(CCNc1ncccn1)NCCc1ccc(Cl)s1` | 3.073% |
| `CC(C)Oc1ncc(C(=O)N2CCC(N(C)C)CC2)cc1Cl` | 14.12% |
| `Cc1cccc2[nH]c(C3CCN(C(=O)c4cnc(O)cc4O)CC3)nc12` | 0% |
| `CN(C(=O)c1ncn2c1CN(C)S(=O)(=O)c1ccccc1-2)C1CC1` | 12.27% |
| `Cc1ncsc1CN1C[C@H]2CC[C@@H]1CN(Cc1ccccc1)C2` | 13.61% |
| `COc1ccccc1N1CCN(C(=O)CCn2ccc(C)n2)CC1` | 5.96% |
| `Cc1nn(C)c2ncc(S(=O)(=O)N3CCCC(C(N)=O)C3)cc12` (stereo unspecified) | 8.052% |
| `Cc1noc(C)c1CSCc1nc(N)c2ccccc2n1` | 14.66% |
| `CC(C)(C)c1nc(CN2CCCC2CCc2ccccc2)no1` (stereo unspecified) | 6.073% |
| `O=C(CN1CCCC1Cn1cncn1)NCCOc1cccc(F)c1` (stereo unspecified) | 12.6% |
| `N#Cc1c(N2CCOCC2)nsc1-c1cccnc1` | 10.44% |
| `O=C(Cc1cccs1)Nc1cnn(C2CCOC2)c1` (stereo unspecified) | 7.606% |
| `CCOc1ccc(NC(=O)NCCS(=O)(=O)CC)cc1C` | 4.19% |
| `CCc1nccn1-c1cccc(C2CCN(C(=O)COC)CC2)n1` | 15.48% |
| `O=C(C1CCOCC1)N1CCO[C@H]2[C@H](OCc3ccncc3)CC[C@@H]21` | 16.43% |
| `CN1CC(Oc2ccc(Cl)cc2)=NC(SCC(=O)Nc2ccccc2)=N1` | 7.519% |
| `Cn1cc(CNCC(c2ccc(Cl)cc2)n2cccn2)cn1` (stereo unspecified) | 15.09% |
| `Cc1nc2ccc(C(=O)N3CC[C@H](O)[C@@H](N4CCOCC4)CC3)cc2[nH]1` | 10.93% |
| `CN(CC1CCCCO1)c1nncc(-c2cccc(F)c2)n1` (stereo unspecified) | 14.18% |
| `Cc1csc(N2CCN(Cc3cccnc3)CC2C)n1` (stereo unspecified) | 13.91% |
| `O=C(CN1C[C@H]2CC[C@@H]1CN(Cc1ccccn1)C2)NCc1cccs1` | 25.22% |
| `CC(=O)NC1CCCN(c2nc3ccccc3cc2CO)C1` (stereo unspecified) | 19.51% |
| `CC(C)CN1CC(C(=O)NCCNc2ncccn2)CC1=O` (stereo unspecified) | 12.58% |
| `Cc1nc(CC(=O)N2CCc3nnc(N(C)C)cc3C2)cs1` | 19.2% |
| `COc1ccccc1CCNC(=O)NC(C)COCC(F)(F)F` (stereo unspecified) | 9.424% |
| `O=C(O)[C@@H]1CN(C2CCCCC2)C[C@H]1C1CC1` | 7.534% |
| `CC(=O)N1CCC(c2cnc(-c3c(C)nn(C)c3C)cn2)CC1` | 10.36% |
| `O=C1CN(Cc2nnc(-c3ccc(Cl)cc3)o2)CCN1` | 11.61% |
| `Cn1c(CN2CCCCC2)nnc1C1CCCN(C(=O)CCC(N)=O)C1` (stereo unspecified) | 12.64% |
| `c1nc(NCC2(N3CCOCC3)CCSC2)c2sccc2n1` (stereo unspecified) | 10.6% |
| `COc1cc2c(cc1-c1nc3c(cnn3C(C)C3CC3)[nH]1)OCO2` (stereo unspecified) | 17.91% |
| `CC(C)(O)CCc1cccc(C(=O)NCC2COCCO2)c1` (stereo unspecified) | 2.93% |
| `CC(NC(=O)CCCN(C)C)c1cn(-c2ccccc2)nn1` (stereo unspecified) | 4.7% |
| `CC(C)CN1CC(c2nc(CCc3ccccc3)n[nH]2)CC1=O` (stereo unspecified) | 10.61% |
| `CCSc1ccc(C(=O)N2CCCC2C(=O)N2CCOCC2)cn1` (stereo unspecified) | 18.16% |
| `CCN(CC)S(=O)(=O)c1ccc(C(F)(F)F)cc1C#N` | 10.87% |
| `Cc1cccc(CN2CCc3c(CNC(=O)CC#N)nn(C)c3C2)n1` | 13.59% |
| `Cc1n[nH]cc1CNCC1(c2cccc(F)c2)CCOCC1` | 13.97% |
| `O=C(NCCOc1ccc(F)cc1)C1CCCN(C(=O)C2CC2)C1` (stereo unspecified) | 14.78% |
| `CN1CCCC(CCC(=O)NCCCn2ncc3ccccc32)C1` (stereo unspecified) | 3.881% |
| `Cc1noc(-c2ccnc(Oc3ccc(CN4CCCC4)cc3C)c2)n1` | 11.76% |
| `CCCNC(=O)C1CCCN(Cc2ccc(-n3cncn3)c(C)c2)C1` (stereo unspecified) | 7.246% |
| `O=C(NC1(C(=O)O)CCCCC1)C1Cc2ccccc2O1` (stereo unspecified) | 12.33% |
| `CC(=O)Nc1nc(C2CCN(C(=O)Cc3ccccc3)CC2)cs1` | 16.67% |
| `Cc1noc(C)c1CN1CCN(Cc2nccn2C)CC1` | 14.69% |
| `CN(C)c1cnn(CC(=O)N2CCN(c3ccccc3)CC2)c(=O)c1` | 7.343% |
| `Cc1cc(NC(=O)CN(c2ccccc2)C(C)C)on1` | 16.67% |
| `CCn1nccc1C(=O)Nc1nc(C)c(C(C)=O)s1` | 16.55% |